Experiment [1] deals with FLAG-Strep-tag2 (F/S) fused to the N-terminus of Vpr (viral protein R of HIV-1, pNL4-3) (HIV-1 (pNL4-3)) (UniProt P12520). Briefly: condition: FLAG-Strep-Vpr 0.1, 0.317, 1.0 pmol with rRPA70 1.0 pmol; pull-down; FLAG-Strep-Vpr (0.1, 0.317, 1.0 pmol) incubated with rRPA70 (1.0 pmol), pulled down with Streptavidine M280 beads; proteins analysed by Western blot; both purified.

Sequences of proteins named here, by UniProt entry; tags and fusion partners are left off.
UniProt P12520: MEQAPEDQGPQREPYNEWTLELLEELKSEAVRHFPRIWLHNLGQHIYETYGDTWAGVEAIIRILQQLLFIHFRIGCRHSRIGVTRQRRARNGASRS
UniProt P27694: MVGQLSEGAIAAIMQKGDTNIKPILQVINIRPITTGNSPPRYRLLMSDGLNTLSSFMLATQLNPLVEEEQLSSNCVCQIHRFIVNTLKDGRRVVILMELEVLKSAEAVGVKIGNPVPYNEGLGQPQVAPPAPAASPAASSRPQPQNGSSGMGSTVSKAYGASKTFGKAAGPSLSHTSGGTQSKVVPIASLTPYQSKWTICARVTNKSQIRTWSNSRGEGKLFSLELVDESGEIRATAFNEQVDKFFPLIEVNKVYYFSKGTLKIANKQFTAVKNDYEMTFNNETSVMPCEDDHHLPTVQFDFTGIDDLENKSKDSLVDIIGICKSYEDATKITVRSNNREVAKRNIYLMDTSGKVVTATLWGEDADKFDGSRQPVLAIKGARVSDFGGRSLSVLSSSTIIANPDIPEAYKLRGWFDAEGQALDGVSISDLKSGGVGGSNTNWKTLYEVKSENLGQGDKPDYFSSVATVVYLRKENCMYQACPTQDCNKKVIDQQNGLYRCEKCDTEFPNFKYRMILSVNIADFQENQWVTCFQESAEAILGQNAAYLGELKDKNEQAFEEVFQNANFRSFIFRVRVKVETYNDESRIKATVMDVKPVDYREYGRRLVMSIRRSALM

The target is the same in experiment [2]. Nature of the experiment: condition: FLAG-Strep-Vpr 1, 3.17, 10 pmol with T4gp32 100 pmol; pull-down; FLAG-Strep-Vpr (1, 3.17, 10 pmol) incubated with T4gp32 (100 pmol), pulled down with Streptavidine M280 beads; proteins visualized by Oriole fluorescent gel staining; both purified.

No constants are given. Whether binding was seen depends on the method and setting.

As for “recombinant RPA70 (replication protein A 70-kDa subunit, hRPA70) (from UniProt P27694 1-616)”, the binding result in experiment [1] is reported as “no binding”.

B1: T4gp32 (T4 gene 32 protein) (protein, UniProt P03695 1-301)
chain: MFKRKSTAELAAQMAKLNGNKGFSSEDKGEWKLKLDNAGNGQAVIRFLPSKNDEQAPFAILVNHGFKKNGKWYIETCSSTHGDYDSCPVCQYISKNDLYNTDNKEYSLVKRKTSYWANILVVKDPAAPENEGKVFKYRFGKKIWDKINAMIAVDVEMGETPVDVTCPWEGANFVLKVKQVSGFSNYDESKFLNQSAIPNIDDESFQKELFEQMVDLSEMTSKDKFKSFEELNTKFGQVMGTAVMGGAAATAAKKADKVADDLDAFNVDDFNTKTEDDFMSSSSGSSSSADDTDLDDLLNDL
With B1, the binding result in experiment [2] was “no binding”.

(Values after publication PMC5771197.)
